The record followed here is patent US20040170955A1 (University of Texas, published 2004).

The chains behind the UniProt entries cited, without tags or fusion partners. Residues count along the entry.
UniProt P08758, residues 2-320: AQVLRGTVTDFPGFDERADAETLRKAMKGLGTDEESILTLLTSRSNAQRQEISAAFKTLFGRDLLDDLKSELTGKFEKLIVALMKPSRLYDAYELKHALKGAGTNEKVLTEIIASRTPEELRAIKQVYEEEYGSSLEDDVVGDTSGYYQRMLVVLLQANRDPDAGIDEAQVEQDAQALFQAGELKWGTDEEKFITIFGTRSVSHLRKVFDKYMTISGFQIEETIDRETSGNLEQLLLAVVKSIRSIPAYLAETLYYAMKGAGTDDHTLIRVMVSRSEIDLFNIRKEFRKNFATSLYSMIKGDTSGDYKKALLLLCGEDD
UniProt P18084, residues 743-799: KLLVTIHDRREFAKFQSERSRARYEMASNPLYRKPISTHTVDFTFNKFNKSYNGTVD

Results are given in words; binding and its absence hold for the method and conditions named. Some results given as binding are weak or reduced against the parent protein; the word gives no strength.

One assay addresses Annexin V (UniProt P08758). Nature of the assay: ELISA, Annexin V coated, GST fusion added, anti-GST fusion protein antibodies (not shown).
In assay [1] the target is GST-β5cyto (GST fusion protein of the β5 integrin cytoplasmic domain) (UniProt P18084). Nature of the assay: ELISA, GST-β5 coated; low binding in TBS, high binding in cytoplasmic buffer with or without 2 mM calcium.

As for “GST-β5cyto (GST fusion protein of the β5 integrin cytoplasmic domain) (from UniProt P18084 743-799)”, in the assay with Annexin V, the binding entry was “binds”.

For the substance Annexin V (from UniProt P08758 2-320), the binding result in assay [1] was “binds”.
